From patent US9339568B2, “Reduced temperature sterilization of stents” (Abbott Cardiovascular Systems Inc., priority 2006, dated 2016)
“And” between values parts separate entries of the source, which are not always exact repeats. Equal values may be shown once. At least one read-out could not be matched to a standard name with certainty.

Assay: Drug recovery after e-beam sterilization of drug-polymer coated stents (HPLC of dissolved remaining coating)
Type: physicochemical
Conditions: 25 kGy

## CO[C@H]1C[C@@H]2CC[C@@H](C)[C@@](O)(O2)C(=O)C(=O)N2CCCC[C@H]2C(=O)O[C@H]([C@H](C)C[C@@H]2CC[C@@H](OCCO)[C@H](OC)C2)CC(=O)[C@H](C)/C=C(\C)[C@@H](O)[C@@H](OC)C(=O)[C@H](C)C[C@H](C)/C=C/C=C/C=C/1C (racemic) [everolimus, 40-O-(2-hydroxy)ethyl-rapamycin]
Room Temperature E-Beam, poly(DL-lactide)-drug coating on poly(L-lactide) substrate
  Drug Recovery: 88.05% and 76.68% and 90.38% and 89.74% and 83.75% and 85.72%
Reduced temperature e-beam (−15° C. prior to exposure)
  average recovery: 94.79%
Room temperature e-beam
  average recovery: 85.72%
